Measured values from article PMC7136964.

Amino acid sequences for entries named in this document (tags omitted).
UniProt Q96RU2: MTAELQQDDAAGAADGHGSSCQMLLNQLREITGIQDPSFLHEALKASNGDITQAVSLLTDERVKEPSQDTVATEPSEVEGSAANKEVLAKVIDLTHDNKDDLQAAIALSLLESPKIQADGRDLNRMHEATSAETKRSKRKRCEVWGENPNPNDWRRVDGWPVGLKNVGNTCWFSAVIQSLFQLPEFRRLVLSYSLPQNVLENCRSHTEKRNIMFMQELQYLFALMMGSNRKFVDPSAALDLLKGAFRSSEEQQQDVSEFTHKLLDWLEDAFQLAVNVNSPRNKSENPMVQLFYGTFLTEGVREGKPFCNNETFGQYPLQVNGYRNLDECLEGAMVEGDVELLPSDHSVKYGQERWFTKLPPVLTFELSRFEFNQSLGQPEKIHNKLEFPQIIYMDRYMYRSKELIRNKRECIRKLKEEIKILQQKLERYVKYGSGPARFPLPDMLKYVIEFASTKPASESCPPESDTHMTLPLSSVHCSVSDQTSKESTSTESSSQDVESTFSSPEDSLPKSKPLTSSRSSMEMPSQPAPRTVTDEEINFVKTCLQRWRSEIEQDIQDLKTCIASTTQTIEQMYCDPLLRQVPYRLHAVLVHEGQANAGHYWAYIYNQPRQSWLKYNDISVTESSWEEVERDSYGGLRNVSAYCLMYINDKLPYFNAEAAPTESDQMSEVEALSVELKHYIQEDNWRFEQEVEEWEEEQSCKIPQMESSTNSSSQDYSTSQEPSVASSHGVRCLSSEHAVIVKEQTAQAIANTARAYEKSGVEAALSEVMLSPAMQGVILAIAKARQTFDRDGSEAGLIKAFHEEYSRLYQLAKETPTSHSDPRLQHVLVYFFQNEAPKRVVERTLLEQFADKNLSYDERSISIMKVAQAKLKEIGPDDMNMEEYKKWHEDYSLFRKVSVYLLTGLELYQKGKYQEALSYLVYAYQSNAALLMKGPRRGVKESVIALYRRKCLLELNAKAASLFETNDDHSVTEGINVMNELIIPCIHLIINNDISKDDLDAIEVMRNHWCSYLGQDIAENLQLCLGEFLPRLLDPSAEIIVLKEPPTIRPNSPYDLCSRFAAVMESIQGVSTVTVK

Target: HA-tagged USP28 (UniProt Q96RU2)
Assay: co-IP; exogenous tagged proteins in transfected HEK293 cells; RIPA lysate, 500 μg lysate, 1 μg specific antibody, Protein A/G magnetic beads; immunoblot

- binding: binds
Substance: FLAG-tagged ∆Np63 (from UniProt Q9H3D4-2)

These are yes or no findings as the source states them, for the method shown. Binding seen in cells or lysates may run through a third protein. A result given as binding can be weak or reduced; the word gives no strength.
